Regarding `CC(C)NCC(O)COc1ccc(CC(N)=O)cc1` (centres unmarked) [atenolol], in “PAMPA-BBB”, the classification entry is on record as “BBB– (Pe values <1.57 were classified as nonpermeable (BBB−))”. For the same molecule, in the data set “PAMPA-GIT”, the experimental fraction absorption is on record as 15.81%.
